One substance from patent US7534761B1, “Charged peptide-amphiphile solutions and self-assembled peptide nanofiber networks formed therefrom” (North Western University, priority 2002, dated 2009) can be followed below.

The nature of series [1]: Mineralization of bulk PA gel (TEM, electron diffraction). The conditions noted are these: 0.05% PA, Na2HPO4 1.2 mM, 20 μL 0.25M CaCl2.
Series [2] can be described thus: Mineralization of peptide amphiphile coated Ti surfaces (2 mM CaCl2, 1.2 mM Na2HPO4).

“C16H31O-CCCCGGGSS(P)DS(P)D (CCCCGGGSSDSD; C16 alkyl tail; phosphoserines) [SEQ ID NO 1, peptide amphiphile: alkyl tail C16H31O, structural peptide CCCCGGG, functional peptide SS*DS*D]”: in series [1], the “mineral formed in bulk gel (TEM)” value was “nanocrystals of calcium phosphate” and the “orientation of crystals in bulk gel (electron diffraction)” value is reported as “preferentially aligned along their c-axes”. Also, the “hydroxyapatite crystals on coated titanium foil compared to mineralized titanium foil controls” value in series [2] (1 hr and 24 hr mineralizations) was “fewer hydroxyapatite crystals”. Also, the “hydroxyapatite crystal formation, 0.05% solution compared with 0.1% solution dried on titanium foil” value in series [2] (coating concentration 0.05% vs 0.1%) is listed as “slightly greater”.
